Laboratory results reported in patent US7199097B1, “Peptide fragments having cell death inhibitory activity” (Juridical Foundation The Chemo-Sero-Therapeutic Research …, priority 1998, dated 2007).
At least one structure is not confirmed: it was looked up by name or label, or the drawing left a doubt. Some entries share one result that the patent states for a list of compounds.

Tests used:
Dami cells = assay: Cell death induced by fatty acid in serum free culture of Dami cells; format: cell-based, human; conditions: for concentration inducing cell death: serum free culture; for concentration at which cell death could not be inhibited: in the presence of 4 μM linoleic acid or linolenic acid; for induction of cell death: 10 μM, serum free culture in the absence of selenoprotein P
Description: To 1 ml Dami cells (1×10^6 cells/dish/3 ml), which can be subcultured in serum free medium SFO3 (manufactured by Sanko Jun-yaku K. K.) containing 0.05 μM 2ME and 0.1% BSA, was added 2 ml 1:2:2 mixed medium (SA medium) of RPMI 1640/D-MEM/F-12. The cells were cultured for three days and recovered for assay. The cells were washed twice with SA/0.05% fatty acid free BSA (manufactured by Wako Jun-yaku K. K.) and suspended at 3×10^4 cells/ml in the same medium containing 2 to 16 μM arachidonic acid, linoleic acid or linolenic acid. The cell suspension was added to a 96-well plate in each 198 μl for wells for sample addition or in each 100 μl for wells for serial dilution.
To the wells for sample addition was added each 2 μl of 100 μM assay sample and, after stirring, a serial dilution was made with the wells containing 100 μl cell suspension. The plate was incubated at 37° C. in CO2 incubator for 4 to 5 days.

Jurkat cells = Jurkat cells cultured in 5% human serum from which selenoprotein P was removed; format: cell-based; conditions: 5% human serum with selenoprotein P removed

CCCCC/C=C\C/C=C\CCCCCCCC(=O)O [linoleic acid]
concentration inducing cell death (Dami cells): ≥ 4 µM

catalase
concentration at which cell death could not be inhibited (Dami cells): > 1 µM

CC/C=C\C/C=C\C/C=C\C/C=C\C/C=C\CCCC(=O)O [eicosapentaenoic acid]
induction of cell death (Dami cells): induced cell death

CC/C=C\C/C=C\C/C=C\C/C=C\C/C=C\C/C=C\CCC(=O)O [docosahexaenoic acid]
induction of cell death (Dami cells): induced cell death

CCCCC/C=C\C/C=C\C/C=C\C/C=C\CCCC(=O)O [arachidonic acid]
concentration inducing cell death (Dami cells): ≥ 4 µM

superoxide dismutase
concentration at which cell death could not be inhibited (Dami cells): > 1 µM

O=c1c2ccccc2[se]n1-c1ccccc1 [Ebselen]
effect on cellular growth and intracellular glutathione peroxidase activity (Jurkat cells): no equivalent effect
